40 targets from the supplement of paper PMC10849652 can be followed below.

The chains behind the UniProt entries cited, without tags or fusion partners. Where a name states a change or a piece, a line headed by the entry shows the natural chain unless it says otherwise.
UniProt Q06547, whole entry, looked up: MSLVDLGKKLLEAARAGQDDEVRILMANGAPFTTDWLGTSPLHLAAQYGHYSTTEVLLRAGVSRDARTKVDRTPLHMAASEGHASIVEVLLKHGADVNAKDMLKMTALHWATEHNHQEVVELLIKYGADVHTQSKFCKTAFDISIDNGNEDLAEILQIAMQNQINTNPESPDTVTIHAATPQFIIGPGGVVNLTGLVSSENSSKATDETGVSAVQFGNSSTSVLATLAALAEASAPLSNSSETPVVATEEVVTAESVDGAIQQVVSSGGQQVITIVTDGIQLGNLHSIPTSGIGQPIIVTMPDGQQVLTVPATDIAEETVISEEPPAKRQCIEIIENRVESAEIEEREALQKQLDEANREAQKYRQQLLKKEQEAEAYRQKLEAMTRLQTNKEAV
UniProt Q14C86: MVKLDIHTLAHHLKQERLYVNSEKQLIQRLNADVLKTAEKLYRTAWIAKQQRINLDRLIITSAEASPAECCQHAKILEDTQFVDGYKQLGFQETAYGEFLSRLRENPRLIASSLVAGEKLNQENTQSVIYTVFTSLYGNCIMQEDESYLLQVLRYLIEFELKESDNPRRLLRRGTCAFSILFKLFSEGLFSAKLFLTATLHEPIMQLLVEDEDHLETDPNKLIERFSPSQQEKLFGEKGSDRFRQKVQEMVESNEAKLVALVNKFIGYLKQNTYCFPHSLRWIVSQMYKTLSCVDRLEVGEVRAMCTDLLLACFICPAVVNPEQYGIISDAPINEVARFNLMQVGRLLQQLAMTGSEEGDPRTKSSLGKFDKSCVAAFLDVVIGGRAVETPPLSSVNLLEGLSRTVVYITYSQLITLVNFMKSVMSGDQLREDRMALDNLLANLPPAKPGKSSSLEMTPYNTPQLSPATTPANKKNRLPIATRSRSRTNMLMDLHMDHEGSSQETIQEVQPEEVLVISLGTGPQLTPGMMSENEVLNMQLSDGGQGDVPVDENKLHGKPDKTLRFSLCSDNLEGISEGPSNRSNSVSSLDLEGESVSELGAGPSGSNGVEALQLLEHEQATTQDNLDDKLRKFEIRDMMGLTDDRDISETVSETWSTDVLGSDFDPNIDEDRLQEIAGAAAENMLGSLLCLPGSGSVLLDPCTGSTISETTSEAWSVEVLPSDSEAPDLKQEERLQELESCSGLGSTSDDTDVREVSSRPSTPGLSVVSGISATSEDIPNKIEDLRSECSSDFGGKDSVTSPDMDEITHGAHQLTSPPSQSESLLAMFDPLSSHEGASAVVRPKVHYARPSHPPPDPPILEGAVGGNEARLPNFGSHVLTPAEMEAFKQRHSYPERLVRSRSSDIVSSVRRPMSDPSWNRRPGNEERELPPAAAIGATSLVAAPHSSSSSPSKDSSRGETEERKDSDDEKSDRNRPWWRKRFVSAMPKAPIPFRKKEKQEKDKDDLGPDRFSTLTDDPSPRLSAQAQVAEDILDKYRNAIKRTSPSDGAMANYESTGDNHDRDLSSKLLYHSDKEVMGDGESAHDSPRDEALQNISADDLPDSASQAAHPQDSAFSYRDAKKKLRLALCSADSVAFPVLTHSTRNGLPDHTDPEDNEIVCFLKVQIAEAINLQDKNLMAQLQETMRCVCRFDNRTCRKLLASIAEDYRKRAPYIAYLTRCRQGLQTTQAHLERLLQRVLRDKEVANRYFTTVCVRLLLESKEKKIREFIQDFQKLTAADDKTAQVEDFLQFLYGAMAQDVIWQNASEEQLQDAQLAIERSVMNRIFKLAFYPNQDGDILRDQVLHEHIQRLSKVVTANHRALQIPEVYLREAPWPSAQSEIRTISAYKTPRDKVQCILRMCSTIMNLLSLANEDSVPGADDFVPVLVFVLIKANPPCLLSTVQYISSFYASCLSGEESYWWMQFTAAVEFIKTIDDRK
UniProt Q96QD9: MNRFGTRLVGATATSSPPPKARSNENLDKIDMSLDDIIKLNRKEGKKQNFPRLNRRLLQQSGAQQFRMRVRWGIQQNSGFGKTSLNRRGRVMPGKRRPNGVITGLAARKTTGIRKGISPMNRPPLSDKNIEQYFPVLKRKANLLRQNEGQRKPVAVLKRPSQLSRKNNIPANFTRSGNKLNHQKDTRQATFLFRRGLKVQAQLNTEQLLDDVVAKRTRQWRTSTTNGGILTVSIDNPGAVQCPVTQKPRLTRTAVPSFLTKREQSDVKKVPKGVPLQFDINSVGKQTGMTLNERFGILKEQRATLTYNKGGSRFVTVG
UniProt P55789: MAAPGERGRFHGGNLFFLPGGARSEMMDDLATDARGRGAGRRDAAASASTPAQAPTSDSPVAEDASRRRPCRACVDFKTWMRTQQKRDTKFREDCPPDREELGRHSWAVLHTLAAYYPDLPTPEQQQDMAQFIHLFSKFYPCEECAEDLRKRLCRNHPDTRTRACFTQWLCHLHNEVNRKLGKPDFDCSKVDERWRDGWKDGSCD
UniProt Q6ZNA5: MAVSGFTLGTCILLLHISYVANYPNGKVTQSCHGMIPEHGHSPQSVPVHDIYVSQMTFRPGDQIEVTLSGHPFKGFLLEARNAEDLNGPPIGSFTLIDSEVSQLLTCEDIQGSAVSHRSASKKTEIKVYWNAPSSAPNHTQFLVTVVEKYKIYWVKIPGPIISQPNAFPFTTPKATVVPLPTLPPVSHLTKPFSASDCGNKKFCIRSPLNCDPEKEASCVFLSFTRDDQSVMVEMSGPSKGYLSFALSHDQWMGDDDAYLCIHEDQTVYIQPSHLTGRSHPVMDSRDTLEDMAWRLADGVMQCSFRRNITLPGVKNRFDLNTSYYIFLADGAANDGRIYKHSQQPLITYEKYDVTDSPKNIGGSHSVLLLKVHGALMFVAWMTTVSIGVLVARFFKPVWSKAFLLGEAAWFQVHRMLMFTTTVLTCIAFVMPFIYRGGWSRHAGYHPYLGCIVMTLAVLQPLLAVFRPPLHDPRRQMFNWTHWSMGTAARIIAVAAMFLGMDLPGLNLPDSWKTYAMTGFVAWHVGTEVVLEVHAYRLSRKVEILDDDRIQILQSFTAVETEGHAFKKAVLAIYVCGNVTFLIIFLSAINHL
UniProt P48506: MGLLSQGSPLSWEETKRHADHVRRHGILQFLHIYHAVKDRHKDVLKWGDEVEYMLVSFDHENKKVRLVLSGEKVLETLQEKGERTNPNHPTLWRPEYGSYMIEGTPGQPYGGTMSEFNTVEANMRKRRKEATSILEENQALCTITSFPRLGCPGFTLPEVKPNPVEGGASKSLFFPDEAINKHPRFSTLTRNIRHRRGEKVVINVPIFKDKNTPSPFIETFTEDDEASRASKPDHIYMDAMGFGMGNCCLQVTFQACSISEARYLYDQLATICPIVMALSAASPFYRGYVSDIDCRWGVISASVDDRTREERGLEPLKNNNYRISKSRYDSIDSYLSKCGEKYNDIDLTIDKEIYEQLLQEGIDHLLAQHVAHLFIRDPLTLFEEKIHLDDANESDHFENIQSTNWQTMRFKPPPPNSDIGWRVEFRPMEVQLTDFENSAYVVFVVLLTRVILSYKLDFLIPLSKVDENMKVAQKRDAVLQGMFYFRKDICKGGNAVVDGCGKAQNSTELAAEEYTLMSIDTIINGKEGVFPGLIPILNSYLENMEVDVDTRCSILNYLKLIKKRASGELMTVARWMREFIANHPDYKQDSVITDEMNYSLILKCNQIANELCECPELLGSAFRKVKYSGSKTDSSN
UniProt P51570: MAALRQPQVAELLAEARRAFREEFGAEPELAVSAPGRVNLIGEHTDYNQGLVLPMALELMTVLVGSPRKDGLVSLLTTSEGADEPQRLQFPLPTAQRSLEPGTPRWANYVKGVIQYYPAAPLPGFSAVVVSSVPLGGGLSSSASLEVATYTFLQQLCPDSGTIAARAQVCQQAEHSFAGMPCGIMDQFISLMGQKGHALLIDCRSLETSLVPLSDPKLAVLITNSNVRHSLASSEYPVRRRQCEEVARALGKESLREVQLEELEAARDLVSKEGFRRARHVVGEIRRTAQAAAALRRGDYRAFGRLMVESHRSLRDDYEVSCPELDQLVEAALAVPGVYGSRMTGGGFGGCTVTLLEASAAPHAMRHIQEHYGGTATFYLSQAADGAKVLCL
UniProt Q86SR1: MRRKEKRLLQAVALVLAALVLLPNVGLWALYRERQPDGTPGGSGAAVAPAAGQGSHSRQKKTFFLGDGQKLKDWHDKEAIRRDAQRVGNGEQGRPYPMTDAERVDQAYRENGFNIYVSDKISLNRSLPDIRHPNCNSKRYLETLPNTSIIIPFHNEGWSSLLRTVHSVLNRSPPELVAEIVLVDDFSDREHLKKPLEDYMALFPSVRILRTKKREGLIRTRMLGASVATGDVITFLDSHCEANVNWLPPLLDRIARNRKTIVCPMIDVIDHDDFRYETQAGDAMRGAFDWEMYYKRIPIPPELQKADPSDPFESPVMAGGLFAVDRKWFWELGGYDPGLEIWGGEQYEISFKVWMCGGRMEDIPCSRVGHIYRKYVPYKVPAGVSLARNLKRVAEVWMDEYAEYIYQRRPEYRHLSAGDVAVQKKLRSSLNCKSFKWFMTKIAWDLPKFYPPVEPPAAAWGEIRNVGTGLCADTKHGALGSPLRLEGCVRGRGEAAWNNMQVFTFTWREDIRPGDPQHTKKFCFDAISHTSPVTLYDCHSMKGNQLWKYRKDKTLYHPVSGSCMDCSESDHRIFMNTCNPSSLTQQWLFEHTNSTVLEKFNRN
UniProt Q10472: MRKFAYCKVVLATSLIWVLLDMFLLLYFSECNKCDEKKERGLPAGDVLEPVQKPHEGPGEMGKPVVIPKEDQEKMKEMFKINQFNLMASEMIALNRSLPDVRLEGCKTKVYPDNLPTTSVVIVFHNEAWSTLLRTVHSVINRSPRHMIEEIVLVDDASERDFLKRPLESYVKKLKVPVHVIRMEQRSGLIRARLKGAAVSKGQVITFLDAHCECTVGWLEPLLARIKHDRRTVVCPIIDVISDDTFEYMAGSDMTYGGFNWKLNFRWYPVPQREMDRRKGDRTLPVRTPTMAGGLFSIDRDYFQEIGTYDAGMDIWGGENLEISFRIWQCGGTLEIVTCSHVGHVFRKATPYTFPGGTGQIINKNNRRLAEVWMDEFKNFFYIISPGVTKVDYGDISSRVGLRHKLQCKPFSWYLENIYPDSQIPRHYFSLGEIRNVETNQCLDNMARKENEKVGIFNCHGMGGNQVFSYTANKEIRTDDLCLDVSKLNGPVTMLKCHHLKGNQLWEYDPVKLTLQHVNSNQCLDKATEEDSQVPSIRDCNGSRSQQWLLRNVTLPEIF
UniProt P50395: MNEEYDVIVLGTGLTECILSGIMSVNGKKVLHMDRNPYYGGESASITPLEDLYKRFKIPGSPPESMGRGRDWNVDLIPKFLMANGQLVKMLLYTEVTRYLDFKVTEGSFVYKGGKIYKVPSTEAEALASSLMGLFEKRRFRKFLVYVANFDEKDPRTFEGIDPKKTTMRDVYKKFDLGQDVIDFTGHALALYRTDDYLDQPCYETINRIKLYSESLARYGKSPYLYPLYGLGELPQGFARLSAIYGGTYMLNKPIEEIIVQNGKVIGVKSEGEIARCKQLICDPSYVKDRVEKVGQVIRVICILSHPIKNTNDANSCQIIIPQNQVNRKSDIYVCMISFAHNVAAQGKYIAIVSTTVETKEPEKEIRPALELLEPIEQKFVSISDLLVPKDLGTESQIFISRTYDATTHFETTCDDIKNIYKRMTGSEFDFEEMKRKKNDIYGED
UniProt P31150: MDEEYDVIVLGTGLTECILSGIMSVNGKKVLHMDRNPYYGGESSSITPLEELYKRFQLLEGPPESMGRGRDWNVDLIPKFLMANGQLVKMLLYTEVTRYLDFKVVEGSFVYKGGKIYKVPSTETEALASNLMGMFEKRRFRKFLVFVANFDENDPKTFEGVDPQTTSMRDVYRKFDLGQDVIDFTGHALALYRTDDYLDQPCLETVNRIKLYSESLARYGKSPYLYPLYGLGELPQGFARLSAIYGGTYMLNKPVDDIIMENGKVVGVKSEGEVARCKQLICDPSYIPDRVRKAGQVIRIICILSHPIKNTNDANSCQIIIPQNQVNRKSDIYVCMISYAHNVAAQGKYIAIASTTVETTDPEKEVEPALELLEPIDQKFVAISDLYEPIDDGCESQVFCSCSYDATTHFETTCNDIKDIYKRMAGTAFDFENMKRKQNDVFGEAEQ
UniProt P02794, whole entry, looked up: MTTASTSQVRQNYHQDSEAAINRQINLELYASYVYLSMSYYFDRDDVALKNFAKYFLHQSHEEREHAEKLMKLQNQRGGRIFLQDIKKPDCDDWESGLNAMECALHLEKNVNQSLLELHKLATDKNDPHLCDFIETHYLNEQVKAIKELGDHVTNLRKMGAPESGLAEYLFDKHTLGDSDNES
UniProt Q8WXD5: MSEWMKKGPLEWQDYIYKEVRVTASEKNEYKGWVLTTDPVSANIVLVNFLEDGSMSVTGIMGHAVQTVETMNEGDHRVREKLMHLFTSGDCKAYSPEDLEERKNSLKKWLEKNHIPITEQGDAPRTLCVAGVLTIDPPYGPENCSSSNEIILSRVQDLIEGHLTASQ

Some of the results follow.

Compound in one test: C1=CC=C(C=C1)[C@H](COC2=CC3=C(C=C2)NC(=O)N3)NC(=O)C4=CC=CN(C4=O)CC5=CC(=C(C=C5)F)F
The experiment in a line: log2 fold change, soluble protein after heating vs DMSO (PISA); higher = thermal stabilisation; K562 lysate, 10 uM; active = over 0.2 and 3.5 SD of the protein, either way, in both replicates (recomputed). A digest of the protocol:
(§1)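 K562 pellets were dounce-homogenised in PBS pH 7.4 with 1 mM MgCl2, and the crude extract at 1 mg/mL protein was treated with 10 μM compound for 30 min. Aliquots were heated for 3 min across 48°C-58°C, pooled, and brought to 0.5% NP-40 at 4°C; soluble protein was the supernatant after 21,000xg for 90 min. Soluble protein was quantified by TMTpro 16plex LC-MS/MS with channel sums equalised, and reported as log2 fold change in thermal stability against DMSO controls, with values from duplicates.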
Consider GABPB1 isoform 3 (UniProt Q06547), for which the log2 fold change is inactive: 0.039.

GAPVD1 isoform 6 (UniProt Q14C86): the log2 fold change was inactive: -0.013.

Regarding FYTTD1 (UniProt Q96QD9), the log2 fold change was inactive: 0.142.

As for GATAD2B (UniProt Q8WXI9), the log2 fold change is inactive: 0.01.

Turning to GFER (UniProt P55789), the log2 fold change was inactive: 0.105.

As to FRRS1 (UniProt Q6ZNA5), the log2 fold change was inactive: 0.063.

As for GCLC (UniProt P48506), the log2 fold change was inactive: 0.059.

With GALK1 isoform 2 (UniProt P51570), the log2 fold change is inactive: 0.014.

For the target GALNT10 (UniProt Q86SR1), the log2 fold change is inactive: 0.119.

With GALNT1 (UniProt Q10472), the log2 fold change was inactive: -0.032.

As to GARS1 (UniProt H7C443), the log2 fold change was inactive: -0.038.

Consider GABPA (UniProt Q06546), for which the log2 fold change was inactive: 0.005.

GDI2 (UniProt P50395): the log2 fold change was inactive: 0.011.

In the case of GDI1 (UniProt P31150), the log2 fold change is inactive: -0.011.

Regarding FUT8 (UniProt Q9BYC5), the log2 fold change was inactive: 0.035.

As to FTH1 (UniProt P02794), the log2 fold change was inactive: -0.034.

Consider GEMIN6 (UniProt Q8WXD5), for which the log2 fold change was inactive: 0.001.

Compound in the next test: CC1=C(SC2=C1C(=N[C@H](C3=NN=C(N32)C)CC(=O)N)C4=CC=C(C=C4)Cl)C
The description is as above. A digest of the protocol: as §1
Consider GFM1 (UniProt Q96RP9), for which the log2 fold change was inactive: 0.004.

Regarding GART (UniProt P22102), the log2 fold change is inactive: 0.047.

Take FYB1 isoform 3 (UniProt O15117): the log2 fold change is inactive: 0.039.

In the case of FPGT (UniProt O14772), the log2 fold change was inactive: -0.003.

Regarding FTSJ3 (UniProt Q8IY81), the log2 fold change is inactive: -0.051.

In the case of GAR1 (UniProt Q9NY12), the log2 fold change was inactive: -0.041.

For the target FYN (UniProt P06241), the log2 fold change was inactive: -0.231.

Turning to GALNT3 (UniProt Q14435), the log2 fold change was inactive: -0.044.

As for FUNDC2 (UniProt Q9BWH2), the log2 fold change was inactive: 0.009.

On to GDPD1 (UniProt Q8N9F7), for which the log2 fold change is inactive: 0.018.

Turning to GADD45GIP1 (UniProt Q8TAE8), the log2 fold change is inactive: -0.015.

For FOXRED1 (UniProt Q96CU9), the log2 fold change is inactive: 0.008.

As to GBF1 (UniProt Q92538), the log2 fold change was inactive: 0.

In the case of GAPVD1 (UniProt Q14C86), the log2 fold change is inactive: -0.067.

Consider FUNDC2 (UniProt H7C0K8), for which the log2 fold change is inactive: -0.094.

For GAB1 isoform 2 (UniProt Q13480), the log2 fold change is inactive: 0.018.

As to FOXP1 (UniProt Q9H334), the log2 fold change was inactive: 0.14.

In the case of FUBP1 isoform 2 (UniProt Q96AE4), the log2 fold change is inactive: 0.019.

In the case of G6PD isoform 2 (UniProt P11413), the log2 fold change was inactive: -0.002.

Turning to FURIN (UniProt P09958), the log2 fold change was inactive: 0.017.

FYCO1 isoform 4 (UniProt Q9BQS8): the log2 fold change was inactive: 0.037.

In the case of GCLM (UniProt P48507), the log2 fold change was inactive: -0.041.

As to GAGE1 (UniProt Q13065), the log2 fold change is inactive: -0.014.

Regarding GABPB1 isoform 3 (UniProt Q06547), the log2 fold change is inactive: 0.052.

With GAPVD1 isoform 6 (UniProt Q14C86), the log2 fold change is inactive: 0.002.

In the case of FYTTD1 (UniProt Q96QD9), the log2 fold change was inactive: -0.133.

As to GATAD2B (UniProt Q8WXI9), the log2 fold change is inactive: 0.02.

GFER (UniProt P55789): the log2 fold change is inactive: 0.087.

As to FRRS1 (UniProt Q6ZNA5), the log2 fold change is inactive: -0.075.

For the target GCLC (UniProt P48506), the log2 fold change was inactive: 0.006.

For the target GALK1 isoform 2 (UniProt P51570), the log2 fold change was inactive: 0.027.

Turning to GALNT10 (UniProt Q86SR1), the log2 fold change was inactive: 0.007.

Turning to GALNT1 (UniProt Q10472), the log2 fold change was inactive: -0.003.

Consider GARS1 (UniProt H7C443), for which the log2 fold change was inactive: 0.113.

Consider GABPA (UniProt Q06546), for which the log2 fold change is inactive: 0.035.

Turning to GDI2 (UniProt P50395), the log2 fold change is inactive: -0.002.

As for GDI1 (UniProt P31150), the log2 fold change was inactive: 0.004.

As to FUT8 (UniProt Q9BYC5), the log2 fold change was inactive: 0.017.

In the case of FTH1 (UniProt P02794), the log2 fold change is inactive: 0.02.

Consider GEMIN6 (UniProt Q8WXD5), for which the log2 fold change was inactive: -0.009.

Compound in another test: CC1=C2C(=CC=C1)N=C(N(C2=O)C3=CC=CC=C3C)CN4C=NC5=C(N=CN=C54)N
The test is described as above. Put shortly:
as §1
Consider GFM1 (UniProt Q96RP9), for which the log2 fold change is inactive: 0.061.

Take GART (UniProt P22102): the log2 fold change was inactive: 0.011.

As to FYB1 isoform 3 (UniProt O15117), the log2 fold change was inactive: 0.095.

In the case of FPGT (UniProt O14772), the log2 fold change was inactive: 0.07.

For FTSJ3 (UniProt Q8IY81), the log2 fold change was inactive: -0.007.

Take GAR1 (UniProt Q9NY12): the log2 fold change is inactive: 0.012.

On to FYN (UniProt P06241), for which the log2 fold change is inactive: -0.052.

In the case of FUNDC2 (UniProt Q9BWH2), the log2 fold change was inactive: -0.003.

Consider GDPD1 (UniProt Q8N9F7), for which the log2 fold change is inactive: 0.117.

For GADD45GIP1 (UniProt Q8TAE8), the log2 fold change is inactive: 0.016.

For FOXRED1 (UniProt Q96CU9), the log2 fold change was inactive: -0.005.

In the case of GBF1 (UniProt Q92538), the log2 fold change was inactive: 0.005.

Turning to FUNDC2 (UniProt H7C0K8), the log2 fold change is inactive: -0.045.

For the target GAB1 isoform 2 (UniProt Q13480), the log2 fold change was inactive: -0.041.

With FOXP1 (UniProt Q9H334), the log2 fold change was inactive: 0.212.

With FUBP1 isoform 2 (UniProt Q96AE4), the log2 fold change was inactive: -0.02.

G6PD isoform 2 (UniProt P11413): the log2 fold change was inactive: 0.011.

With FURIN (UniProt P09958), the log2 fold change is inactive: 0.046.

FYCO1 isoform 4 (UniProt Q9BQS8): the log2 fold change is inactive: 0.03.

Regarding GCLM (UniProt P48507), the log2 fold change was inactive: 0.02.

As to GABPB1 isoform 3 (UniProt Q06547), the log2 fold change is inactive: -0.017.

Consider GAPVD1 isoform 6 (UniProt Q14C86), for which the log2 fold change is inactive: 0.002.

Consider FYTTD1 (UniProt Q96QD9), for which the log2 fold change is inactive: 0.123.

Turning to GATAD2B (UniProt Q8WXI9), the log2 fold change was inactive: 0.019.

On to GFER (UniProt P55789), for which the log2 fold change was inactive: 0.001.

Take FRRS1 (UniProt Q6ZNA5): the log2 fold change was inactive: -0.059.

With GCLC (UniProt P48506), the log2 fold change is inactive: 0.04.

As for GALK1 isoform 2 (UniProt P51570), the log2 fold change was inactive: 0.035.

Turning to GALNT10 (UniProt Q86SR1), the log2 fold change is inactive: -0.204.

Regarding GALNT1 (UniProt Q10472), the log2 fold change was inactive: 0.007.

As to GABPA (UniProt Q06546), the log2 fold change is inactive: 0.017.

Turning to GDI2 (UniProt P50395), the log2 fold change is inactive: 0.008.

For GDI1 (UniProt P31150), the log2 fold change was inactive: -0.001.

Turning to FTH1 (UniProt P02794), the log2 fold change is inactive: -0.001.

On to GEMIN6 (UniProt Q8WXD5), for which the log2 fold change is inactive: 0.041.
